At least one read-out could not be matched to a standard name with certainty.
Test system: eIF2α phosphorylation (eIF2•GTP•Met-tRNAi ternary complex; HRI activation)
Assay: surrogate dual luciferase eIF2α phosphorylation (ternary complex) assay
Assay type: cell-based, human
Source text: The dual luciferase expression vector and other plasmids used for these studies were previously described (see, for example, Ziegeler, G. et al. Journal of Biological Chemistry 2010, 285(20), 15408-19). The ternary complex assay, surrogate of eIF2α phosphorylation, has been described elsewhere (see, for example, Chen, T. et al. Nature Chemical Biology 2011, 7(9), 610-6). Briefly, the pBISA vector, which contains seven copies of the tetracycline-regulated transactivator response element (TRE), is flanked on both sides by minimal human cytomegalovirus (CMV) minimal promoters allowing bi-directional transcription and two MCSs (multiple cloning sites). Firefly and renilla luciferases were subcloned into MCS-I and MCS-II, respectively. This plasmid, designated pBISA-DL, transcribes two mRNAs that contain the 90 nucleotide plasmid derived 5′UTR (same sequence in both mRNAs), and the ORF encoding either firefly or renilla luciferase followed by a polyadenylation sequence. This plasmid was further modified by inserting the 5′UTR of ATF-4 mRNA into MCS-I in front of the firefly luciferase mRNA. Transcription from this unit generates an mRNA that contains the firefly luciferase ORF preceded by a 5′UTR composed of 90 nucleotides derived from the plasmid and 267 nucleotides derived from the 5′UTR of ATF-4 mRNA. […]

Compound	Emax (F/R) (Table 3)	Emax (F/R) (Table 4)
O=C(Nc1cccc(C(F)(F)F)c1)NC1CCC(Oc2ccc(F)cc2)CC1 (centres unmarked) [Compound I-5m]	11.84	–
O=C(Nc1cccc(C(F)(F)F)c1)NC1CCC(Oc2ccc(C(F)(F)F)cc2)CC1 (centres unmarked) [Compound I-18, 1-(4-(4-(Trifluoromethyl)phenoxy)cyclohexyl)-3-(3-(trifluoromethyl)phenyl)urea]	–	25.12

From patent US20160318856A1, “Substituted Urea eIF2alpha Kinase Activators” (THE BRIGHAM AND WOMEN'S HOSPITAL, INC., priority 2013, published 2016)
